SMILES strings stand for the structures. The list does not hold the whole screen: it gathers tests that were run many times, whatever their T/C, doses with no T/C, and many T/C values between a quarter and a half above the control. Other doses and runs of a compound stand elsewhere. T/C is the treated group as % of the vehicle group. Some entries give survivors of the animals treated and no T/C: the source files T/C as zero there, which appears to mark a toxic dose or a test without result, not a measured value. Some doses without a T/C left all or most animals alive at the check, yet need not have been tolerated: the source hardly ever lists a survival T/C far under the control, and the zero likely stands for such cases as well. Counts of survivors are from the toxicity check (mostly the fifth day) where no day follows; animals may have died later. Schedule codes are those of the source, read here as Q, the interval in days (D) or hours (H), X, the number of doses. Some entries hold several experiments; their values stand side by side, smallest first. Some schedule codes hold Z or #, which are not explained here. For survival time, this PubChem deposit counts one and a half times the control or more as active, and values a quarter to a half above the control carry no call in these data; other NCI protocols may use other cut-offs. Some T/C values are followed by the survivors on the day toxicity was checked, most often the fifth; without a count, all were alive then.

This is an account of results in PubChem BioAssay AID248 (DTP/NCI, 2004).

In this assay the test system is L1210 leukemia ip in BDF1 mice, survival T/C. The assay can be described thus: NCI In Vivo Anticancer Drug Screen. Data for tumor model L1210 Leukemia (intraperitoneal) in B6D2F1 (BDF1) mice. The conditions noted are these: T/C endpoint: mean survival time, higher T/C = longer survival.
Setting [1] is: dose: 200.0 mg/kg/injection, schedule: Q04DX003 (ip), vehicle: saline with Tween-80.
Where [2] appears, read: dose: 400.0 mg/kg/injection, schedule: Q04DX003 (ip), vehicle: saline with Tween-80.
The mark [3] stands for this setting: dose: 200.0 mg/kg/injection, schedule: Q01DX009 (ip), vehicle: Klucel (hydroxypropylcellulose) (HPC).
Where [4] appears, read: dose: 100.0 mg/kg/injection, schedule: Q01DX009 (ip), vehicle: Klucel (hydroxypropylcellulose) (HPC).
Setting [5] is: dose: 400.0 mg/kg/injection, schedule: Q01DX001 (ip), vehicle: saline.
[6] abbreviates: dose: 400.0 mg/kg/injection, schedule: Q04DX003 (ip), vehicle: Klucel (hydroxypropylcellulose) (HPC).
Where [7] appears, read: dose: 400.0 mg/kg/injection, schedule: Q04DX003 (ip), vehicle: saline.
Setting [8] is: dose: 50.0 mg/kg/injection, schedule: Q01DX009 (ip), vehicle: Klucel (hydroxypropylcellulose) (HPC).
[9] abbreviates: dose: 25.0 mg/kg/injection, schedule: Q01DX009 (ip), vehicle: Klucel (hydroxypropylcellulose) (HPC).
Where [10] appears, read: dose: 100.0 mg/kg/injection, schedule: Q01DX009 (ip), vehicle: saline with Tween-80.
Where [11] appears, read: dose: 200.0 mg/kg/injection, schedule: Q04DX003 (ip), vehicle: Klucel (hydroxypropylcellulose) (HPC).
[12] abbreviates: dose: 400.0 mg/kg/injection, schedule: Q01DX009 (ip), vehicle: saline.

Turning to `O=[As](O)(c1cccc(Cl)c1)C1CCCCC1O` (stereo not drawn), the survivor count (dose: 100.0 mg/kg/injection, schedule: Q04DX003 (ip), vehicle: saline with Tween-80) is 0 of 6 and 2 of 6; the survivor count under setting [1] is 0 of 6; the survivor count under setting [2] is listed as 0 of 6.
As to `Oc1cccc2oc(=S)[nH]c12`, the survivor count was 3 of 3 under setting [1]; 0 of 3 and 1 of 3 under setting [2].
Take `N#Cc1cccc(C(=O)Cl)c1`: the survivor count is, setting by setting: (dose: 200.0 mg/kg/injection, schedule: Q01DX009 (ip), vehicle: carboxymethylcellulose (CMC)) 3 of 3; (dose: 400.0 mg/kg/injection, schedule: Q01DX001 (ip), vehicle: carboxymethylcellulose (CMC)) 0 of 3 and 3 of 6; (dose: 400.0 mg/kg/injection, schedule: Q01DX009 (ip), vehicle: carboxymethylcellulose (CMC)) 1 of 3; (dose: 400.0 mg/kg/injection, schedule: Q04DX002 (ip), vehicle: carboxymethylcellulose (CMC)) 3 of 3 and 6 of 6; (dose: 400.0 mg/kg/injection, schedule: Q04DX003 (ip), vehicle: carboxymethylcellulose (CMC)) 6 of 6.
Take `C/C=C/C(=O)Nc1cccc(C)c1C`: the survivor count under setting [3] is on record as 6 of 6.
In the case of `Cc1ccc(NC(=O)c2ccc([N+](=O)[O-])cc2)cc1Cl`, the survivor count runs as follows: under setting [4], 6 of 6; under setting [3], 6 of 6; (dose: 400.0 mg/kg/injection, schedule: Q01DX009 (ip), vehicle: Klucel (hydroxypropylcellulose) (HPC)) 6 of 6.
`CCOc1ccc(Nc2nc(=O)[nH]c3ccccc23)cc1CN(CCCl)CCCl`: the T/C (dose: 100.0 mg/kg/injection, schedule: Q04DX002 (ip), vehicle: saline) was 130 % of control.
Regarding `CCN(CC)CCNC(=O)c1cc(N2CCOCC2)ccn1`, the survivor count under setting [5] is 3 of 6.
Take `O=C(O)/C=C/C(=O)Nc1cc(Cl)cc2c1-c1c(Cl)cc(Cl)cc1C2=O`: the survivor count under setting [6] is reported as 1 of 6.
As for `C1CCN(CCC2CCNCC2)CC1`, the survivor count is, setting by setting: (dose: 200.0 mg/kg/injection, schedule: Q04DX003 (ip), vehicle: saline) 2 of 6; under setting [7], 0 of 6.
On to `Nc1[nH]c(=S)ncc1-c1ccccc1Cl`, for which the survivor count is reported as 3 of 3 under setting [8] and 3 of 3 under setting [3].
For the compound `CC(C)C1CCC(NC(=O)NCCF)CC1` (stereo not drawn), the survivor count reads like this: (dose: 75.0 mg/kg/injection, schedule: Q01DX001 (ip), vehicle: other) 0 of 6; (dose: 150.0 mg/kg/injection, schedule: Q01DX001 (ip), vehicle: other) 0 of 6; (dose: 300.0 mg/kg/injection, schedule: Q01DX001 (ip), vehicle: other) 0 of 6.
`CCCCCCCCN1CCC(c2cccc(O)c2)C(C(=O)CC)C1` (stereo not drawn): the survivor count by setting is: (dose: 12.0 mg/kg/injection, schedule: Q01DX009 (ip), vehicle: Klucel (hydroxypropylcellulose) (HPC)) 1 of 3; under setting [9], 3 of 3; under setting [8], 3 of 3; under setting [4], 0 of 3 and 1 of 3; (dose: 100.0 mg/kg/injection, schedule: Q04DX002 (ip), vehicle: Klucel (hydroxypropylcellulose) (HPC)) 2 of 3; (dose: 200.0 mg/kg/injection, schedule: Q04DX002 (ip), vehicle: Klucel (hydroxypropylcellulose) (HPC)) 1 of 3. Besides, where the note is “dose: 400.0 mg/kg/injection, schedule: Q04DX002 (ip), vehicle: Klucel (hydroxypropylcellulose) (HPC)”, the survivor count is 0 of 3. Moreover, the T/C under setting [9] was 94 [2 of 3 alive], 96, 102 % of control.
As to `NC(N)=N/N=C/c1cccc(O)c1`, where the note is “dose: 250.0 mg/kg/injection, schedule: Q01DX Z (ip), vehicle: saline”, the survivor count is 0 of 6.
`O=S(=O)(F)c1cccc(C[P+](c2ccccc2)(c2ccccc2)c2ccccc2)c1`: the survivor count runs as follows: under setting [10], 1 of 6; (dose: 200.0 mg/kg/injection, schedule: Q04DX003 (ip), vehicle: acetone) 6 of 6; (dose: 400.0 mg/kg/injection, schedule: Q04DX003 (ip), vehicle: acetone) 6 of 6.
As to `O=C1C=CC(=O)N1CO`, the survivor count (dose: 10.0 mg/kg/injection, schedule: Q01DX009 (ip), vehicle: saline) is 0 of 6.
Regarding `C[n+]1cccc2cccc(C(=O)O)c21`, the survivor count (dose: 300.0 mg/kg/injection, schedule: Q01DX001 (ip), vehicle: saline) was 1 of 6.
In the case of `CN(C)N=Nc1cn[nH]c1C(N)=O`, the T/C is, setting by setting: under setting [4], 104 [5 of 6 alive], 120 [5 of 6 alive], 136 [5 of 6 alive], 142 % of control; under setting [3], 125 % of control; under setting [11], 130 % of control; under setting [7], 135 % of control. For the same compound, the survivor count is given as 5 of 6 under setting [12] and 0 of 6 (dose: 600.0 mg/kg/injection, schedule: Q01DX009 (ip), vehicle: saline).
For the compound `NC(N)=NC(=O)COc1ccc(Cl)cc1Cl`, the survivor count (dose: 400.0 mg/kg/injection, schedule: Q04DX002 (ip), vehicle: saline + alcohol) is recorded as 0 of 3.
As for `CONC(=O)NC(=O)C1(c2ccccc2)CCCCC1`, the T/C (dose: 100.0 mg/kg/injection, schedule: Q01DX Z (ip), vehicle: methylcellulose (MC)) was 131 % of control.
Consider `C[N+]1=C(/C=C/c2ccc(O)c3ncccc23)C(C)(C)c2ccccc21`, for which the survivor count is, setting by setting: (dose: 120.0 mg/kg/injection, schedule: Q01DX009 (ip), vehicle: saline) 4 of 6; (dose: 200.0 mg/kg/injection, schedule: Q01DX001 (ip), vehicle: saline) 1 of 4; (dose: 240.0 mg/kg/injection, schedule: Q01DX009 (ip), vehicle: saline) 0 of 6; under setting [5], 1 of 4.
Regarding `O=[As](O)(O)c1ccc(OCCO)cc1`, under setting [12], the survivor count is 2 of 6.
For the compound `CCOC(=O)/C=C(\CBr)OC`, the survivor count reads like this: under setting [4], 0 of 6; (dose: 100.0 mg/kg/injection, schedule: Q04DX003 (ip), vehicle: Klucel (hydroxypropylcellulose) (HPC)) 1 of 6; under setting [3], 0 of 6; under setting [11], 0 of 6; under setting [6], 0 of 6.
For `CN(C)C(=S)Oc1c([N+](=O)[O-])cc([N+](=O)[O-])cc1C(C)(C)C`, the survivor count (dose: 100.0 mg/kg/injection, schedule: Q04DX002 (ip), vehicle: saline with Tween-80) is 3 of 3.
For `Nc1nc(N)c2c(n1)CN(CC1CCC(Cl)CC1)C2` (stereo not drawn), the survivor count runs as follows: under setting [10], 0 of 6; (dose: 200.0 mg/kg/injection, schedule: Q01DX009 (ip), vehicle: saline with Tween-80) 0 of 6; (dose: 400.0 mg/kg/injection, schedule: Q01DX009 (ip), vehicle: saline with Tween-80) 0 of 6.
Consider `CCCCOP(=O)(N1CC1CC)N1CC1CC` (stereo not drawn), for which the survivor count is on record as 6 of 6 (dose: 25.0 mg/kg/injection, schedule: Q04DX003 (ip), vehicle: other); 3 of 6 (dose: 50.0 mg/kg/injection, schedule: Q01DX009 (ip), vehicle: other); 0 of 6 (dose: 100.0 mg/kg/injection, schedule: Q04DX003 (ip), vehicle: other); 2 of 6 (dose: 200.0 mg/kg/injection, schedule: Q04DX003 (ip), vehicle: other); 0 of 6 (dose: 400.0 mg/kg/injection, schedule: Q04DX003 (ip), vehicle: other).
With `COCCNCCN1CCN(CCCN2c3ccccc3Sc3ccc(C(F)(F)F)cc32)CC1`, the survivor count is, setting by setting: (dose: 6.25 mg/kg/injection, schedule: Q04DX003 (ip), vehicle: saline) 3 of 6; (dose: 50.0 mg/kg/injection, schedule: Q01DX009 (ip), vehicle: saline) 2 of 6; (dose: 100.0 mg/kg/injection, schedule: Q04DX003 (ip), vehicle: saline) 3 of 6.
